These results are taken from publication PMC9113918.

The chains behind the UniProt entries cited, without tags or fusion partners. Where a name states a change or a piece, a line headed by the entry shows the natural chain unless it says otherwise. A line that says so, or that is headed by a name, gives the form on record, which may keep a tag or linker.
UniProt Q9R0N7: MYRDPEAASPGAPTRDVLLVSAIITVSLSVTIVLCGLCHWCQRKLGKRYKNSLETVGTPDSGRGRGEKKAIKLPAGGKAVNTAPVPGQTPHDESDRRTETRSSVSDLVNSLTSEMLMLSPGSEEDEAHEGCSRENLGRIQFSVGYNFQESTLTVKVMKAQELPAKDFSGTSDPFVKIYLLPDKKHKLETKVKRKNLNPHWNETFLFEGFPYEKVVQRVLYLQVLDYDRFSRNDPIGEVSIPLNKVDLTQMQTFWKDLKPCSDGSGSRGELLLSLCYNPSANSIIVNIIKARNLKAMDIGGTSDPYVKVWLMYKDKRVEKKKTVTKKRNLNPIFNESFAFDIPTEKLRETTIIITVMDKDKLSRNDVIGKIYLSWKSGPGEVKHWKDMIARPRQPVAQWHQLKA
Synaptotagmin-7γ expressed in tsA-201 cells (Q9R0N7-2, form named): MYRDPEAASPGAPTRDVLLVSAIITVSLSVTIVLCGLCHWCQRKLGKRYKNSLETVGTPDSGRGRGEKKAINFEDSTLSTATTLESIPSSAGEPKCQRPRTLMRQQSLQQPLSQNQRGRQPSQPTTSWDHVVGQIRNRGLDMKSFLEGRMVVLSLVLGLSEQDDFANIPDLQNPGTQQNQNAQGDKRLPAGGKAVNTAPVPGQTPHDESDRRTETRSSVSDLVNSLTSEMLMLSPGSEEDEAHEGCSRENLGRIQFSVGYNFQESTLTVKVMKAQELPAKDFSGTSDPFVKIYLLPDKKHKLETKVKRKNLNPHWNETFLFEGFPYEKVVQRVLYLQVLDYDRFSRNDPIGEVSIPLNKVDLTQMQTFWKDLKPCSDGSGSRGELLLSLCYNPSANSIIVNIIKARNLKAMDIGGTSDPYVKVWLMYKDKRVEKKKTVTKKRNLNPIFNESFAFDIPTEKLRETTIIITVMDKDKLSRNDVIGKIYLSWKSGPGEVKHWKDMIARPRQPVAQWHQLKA
Synaptotagmin-7β expressed in tsA-201 cells (Q9R0N7-3, form named): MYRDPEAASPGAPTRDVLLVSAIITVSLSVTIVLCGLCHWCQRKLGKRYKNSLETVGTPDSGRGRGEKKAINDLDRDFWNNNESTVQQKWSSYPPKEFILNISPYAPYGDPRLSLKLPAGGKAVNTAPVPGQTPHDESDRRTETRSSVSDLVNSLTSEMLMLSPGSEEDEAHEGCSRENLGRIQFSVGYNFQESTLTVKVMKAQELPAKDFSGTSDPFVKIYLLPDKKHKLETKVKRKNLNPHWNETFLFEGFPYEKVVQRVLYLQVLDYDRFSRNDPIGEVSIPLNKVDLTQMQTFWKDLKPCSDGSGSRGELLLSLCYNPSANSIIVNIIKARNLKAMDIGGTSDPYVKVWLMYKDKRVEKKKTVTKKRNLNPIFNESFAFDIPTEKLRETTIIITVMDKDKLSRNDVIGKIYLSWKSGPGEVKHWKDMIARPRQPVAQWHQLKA
UniProt P54282: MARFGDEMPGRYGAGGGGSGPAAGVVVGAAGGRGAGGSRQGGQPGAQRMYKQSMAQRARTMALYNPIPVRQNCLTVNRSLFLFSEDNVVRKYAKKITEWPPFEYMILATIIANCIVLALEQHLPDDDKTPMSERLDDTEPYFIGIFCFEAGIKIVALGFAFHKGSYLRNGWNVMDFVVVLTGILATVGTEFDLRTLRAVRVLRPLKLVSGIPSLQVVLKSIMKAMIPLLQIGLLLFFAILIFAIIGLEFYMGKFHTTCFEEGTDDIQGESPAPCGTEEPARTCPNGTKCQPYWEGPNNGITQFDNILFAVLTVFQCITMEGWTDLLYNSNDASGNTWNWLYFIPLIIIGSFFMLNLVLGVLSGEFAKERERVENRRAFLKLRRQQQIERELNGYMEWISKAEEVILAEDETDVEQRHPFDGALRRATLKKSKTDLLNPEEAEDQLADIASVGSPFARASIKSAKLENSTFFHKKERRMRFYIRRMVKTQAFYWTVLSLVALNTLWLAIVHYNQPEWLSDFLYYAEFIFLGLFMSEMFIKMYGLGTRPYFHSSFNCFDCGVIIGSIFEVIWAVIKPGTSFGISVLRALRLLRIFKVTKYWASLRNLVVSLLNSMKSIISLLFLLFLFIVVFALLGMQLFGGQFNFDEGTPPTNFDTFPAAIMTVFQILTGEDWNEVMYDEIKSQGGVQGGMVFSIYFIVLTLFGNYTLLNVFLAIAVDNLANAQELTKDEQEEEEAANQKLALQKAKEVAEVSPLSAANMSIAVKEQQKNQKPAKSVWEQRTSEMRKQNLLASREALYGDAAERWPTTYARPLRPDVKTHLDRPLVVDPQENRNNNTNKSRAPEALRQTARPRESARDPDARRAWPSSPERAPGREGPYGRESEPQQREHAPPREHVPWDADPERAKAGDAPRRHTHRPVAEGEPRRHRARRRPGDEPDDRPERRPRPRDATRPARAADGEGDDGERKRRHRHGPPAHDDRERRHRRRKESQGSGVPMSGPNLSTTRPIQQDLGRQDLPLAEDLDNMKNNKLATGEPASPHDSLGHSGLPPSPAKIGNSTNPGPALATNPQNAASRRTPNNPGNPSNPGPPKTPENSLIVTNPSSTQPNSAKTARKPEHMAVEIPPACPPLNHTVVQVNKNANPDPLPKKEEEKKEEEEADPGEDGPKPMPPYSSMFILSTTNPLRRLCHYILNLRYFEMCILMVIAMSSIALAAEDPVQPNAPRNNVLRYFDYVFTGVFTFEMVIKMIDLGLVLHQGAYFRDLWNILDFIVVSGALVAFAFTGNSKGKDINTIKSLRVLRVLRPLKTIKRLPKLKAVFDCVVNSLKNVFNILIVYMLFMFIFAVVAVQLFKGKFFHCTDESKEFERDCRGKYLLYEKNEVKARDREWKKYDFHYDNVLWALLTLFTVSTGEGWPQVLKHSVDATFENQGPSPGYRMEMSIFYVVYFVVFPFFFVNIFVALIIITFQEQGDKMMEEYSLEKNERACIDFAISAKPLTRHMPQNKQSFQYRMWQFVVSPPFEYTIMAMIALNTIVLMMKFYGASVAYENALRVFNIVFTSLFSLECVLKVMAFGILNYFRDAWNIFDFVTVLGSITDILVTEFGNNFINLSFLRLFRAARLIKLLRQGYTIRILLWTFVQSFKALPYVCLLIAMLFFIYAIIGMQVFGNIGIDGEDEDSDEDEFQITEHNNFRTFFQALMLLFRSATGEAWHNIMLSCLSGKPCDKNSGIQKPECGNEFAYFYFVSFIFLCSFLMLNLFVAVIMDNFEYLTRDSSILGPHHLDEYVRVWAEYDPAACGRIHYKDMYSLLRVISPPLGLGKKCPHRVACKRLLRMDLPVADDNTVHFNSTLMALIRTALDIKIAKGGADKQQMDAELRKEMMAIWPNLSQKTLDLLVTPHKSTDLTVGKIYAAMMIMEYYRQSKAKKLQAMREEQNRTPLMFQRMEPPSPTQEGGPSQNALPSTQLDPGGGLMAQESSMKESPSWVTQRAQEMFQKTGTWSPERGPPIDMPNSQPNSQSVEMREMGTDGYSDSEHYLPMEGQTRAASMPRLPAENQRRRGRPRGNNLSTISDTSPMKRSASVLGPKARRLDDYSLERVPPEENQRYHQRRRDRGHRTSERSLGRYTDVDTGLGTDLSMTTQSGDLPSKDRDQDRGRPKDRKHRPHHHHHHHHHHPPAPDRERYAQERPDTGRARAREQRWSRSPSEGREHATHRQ
UniProt P97445: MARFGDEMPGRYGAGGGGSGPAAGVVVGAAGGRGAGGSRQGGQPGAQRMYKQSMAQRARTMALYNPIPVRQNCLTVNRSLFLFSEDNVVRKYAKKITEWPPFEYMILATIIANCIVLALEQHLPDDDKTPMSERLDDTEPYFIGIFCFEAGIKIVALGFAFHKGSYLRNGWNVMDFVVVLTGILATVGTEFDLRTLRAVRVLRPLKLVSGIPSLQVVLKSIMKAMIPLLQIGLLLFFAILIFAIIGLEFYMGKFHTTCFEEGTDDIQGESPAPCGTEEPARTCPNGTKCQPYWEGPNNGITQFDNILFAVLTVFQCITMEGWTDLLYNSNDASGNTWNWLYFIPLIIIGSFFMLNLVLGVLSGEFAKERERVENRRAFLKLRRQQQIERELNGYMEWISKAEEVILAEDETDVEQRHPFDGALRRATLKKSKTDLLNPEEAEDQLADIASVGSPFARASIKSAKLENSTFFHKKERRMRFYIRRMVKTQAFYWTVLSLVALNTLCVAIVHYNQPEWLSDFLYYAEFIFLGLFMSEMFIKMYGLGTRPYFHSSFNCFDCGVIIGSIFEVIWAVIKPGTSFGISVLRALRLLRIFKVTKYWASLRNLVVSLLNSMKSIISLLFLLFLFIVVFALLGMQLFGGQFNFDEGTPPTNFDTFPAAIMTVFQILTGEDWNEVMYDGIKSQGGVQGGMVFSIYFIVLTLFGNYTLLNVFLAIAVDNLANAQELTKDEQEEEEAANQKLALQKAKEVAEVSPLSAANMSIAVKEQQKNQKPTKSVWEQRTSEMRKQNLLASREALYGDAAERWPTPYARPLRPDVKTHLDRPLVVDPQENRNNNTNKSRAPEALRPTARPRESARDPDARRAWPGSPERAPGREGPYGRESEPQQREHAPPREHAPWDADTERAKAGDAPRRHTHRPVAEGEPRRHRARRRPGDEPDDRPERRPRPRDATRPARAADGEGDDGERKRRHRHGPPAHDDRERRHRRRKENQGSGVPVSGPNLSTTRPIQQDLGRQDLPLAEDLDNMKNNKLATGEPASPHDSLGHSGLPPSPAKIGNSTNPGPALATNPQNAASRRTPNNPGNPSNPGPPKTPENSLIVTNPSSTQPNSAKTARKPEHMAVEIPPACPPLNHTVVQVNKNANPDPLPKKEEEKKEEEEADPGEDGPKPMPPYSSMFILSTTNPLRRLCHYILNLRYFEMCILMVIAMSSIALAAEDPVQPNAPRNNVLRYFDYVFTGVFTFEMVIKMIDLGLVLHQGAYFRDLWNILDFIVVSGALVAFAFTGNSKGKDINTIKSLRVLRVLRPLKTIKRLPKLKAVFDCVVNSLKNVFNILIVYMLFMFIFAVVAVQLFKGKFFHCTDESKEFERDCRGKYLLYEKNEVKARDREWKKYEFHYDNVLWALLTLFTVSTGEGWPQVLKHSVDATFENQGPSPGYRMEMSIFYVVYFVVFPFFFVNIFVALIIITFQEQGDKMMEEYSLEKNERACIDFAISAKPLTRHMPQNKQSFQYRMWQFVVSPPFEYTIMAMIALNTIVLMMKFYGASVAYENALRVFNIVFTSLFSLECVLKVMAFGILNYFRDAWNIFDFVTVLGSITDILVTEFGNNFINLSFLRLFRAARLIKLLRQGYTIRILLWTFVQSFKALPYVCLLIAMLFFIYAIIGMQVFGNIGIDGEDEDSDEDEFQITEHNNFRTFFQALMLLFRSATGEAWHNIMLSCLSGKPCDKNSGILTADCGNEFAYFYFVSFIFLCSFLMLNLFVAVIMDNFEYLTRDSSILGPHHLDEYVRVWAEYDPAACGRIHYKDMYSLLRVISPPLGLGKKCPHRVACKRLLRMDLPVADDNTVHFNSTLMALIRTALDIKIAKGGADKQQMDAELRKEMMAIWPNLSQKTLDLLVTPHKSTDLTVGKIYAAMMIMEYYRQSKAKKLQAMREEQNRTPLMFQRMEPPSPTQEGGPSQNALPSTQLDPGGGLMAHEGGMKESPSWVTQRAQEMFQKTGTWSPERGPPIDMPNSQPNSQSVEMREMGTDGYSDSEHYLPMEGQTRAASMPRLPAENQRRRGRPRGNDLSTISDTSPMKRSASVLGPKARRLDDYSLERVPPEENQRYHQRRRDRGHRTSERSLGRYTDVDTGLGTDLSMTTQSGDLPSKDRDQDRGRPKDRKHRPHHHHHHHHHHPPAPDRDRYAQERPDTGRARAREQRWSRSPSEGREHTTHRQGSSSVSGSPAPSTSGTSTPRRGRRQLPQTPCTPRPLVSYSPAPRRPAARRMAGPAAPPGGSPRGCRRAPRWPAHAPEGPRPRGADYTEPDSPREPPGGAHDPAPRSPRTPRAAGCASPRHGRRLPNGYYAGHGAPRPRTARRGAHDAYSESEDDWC
UniProt P21707: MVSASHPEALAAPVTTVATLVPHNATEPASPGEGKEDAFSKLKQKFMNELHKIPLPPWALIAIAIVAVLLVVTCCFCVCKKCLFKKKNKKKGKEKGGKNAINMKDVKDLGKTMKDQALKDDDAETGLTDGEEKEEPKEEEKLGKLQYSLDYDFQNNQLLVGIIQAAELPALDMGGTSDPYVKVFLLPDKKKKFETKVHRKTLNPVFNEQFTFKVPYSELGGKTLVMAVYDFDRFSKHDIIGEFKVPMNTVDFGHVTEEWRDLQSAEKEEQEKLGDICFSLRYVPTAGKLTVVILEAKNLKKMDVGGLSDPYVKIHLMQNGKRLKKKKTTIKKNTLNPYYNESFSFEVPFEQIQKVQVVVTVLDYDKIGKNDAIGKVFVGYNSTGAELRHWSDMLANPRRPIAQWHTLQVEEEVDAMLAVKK

These are yes or no findings as the source states them, for the method shown. For part of these data: In cells and extracts the contact can be indirect. Some entries that bind do so weakly or less than the wild type.

In experiment [1] the target is Synaptotagmin-7 (Syt-7α), endogenous in mouse brain membranes (mouse (endogenous in brain)) (UniProt Q9R0N7). Description: co-IP; mouse brain (membrane) lysate; Dynabeads Protein G with anti-Cav2.1 or anti-Syt-7 antibody; TBS with Ca2+-buffering system (50 mM Tris/HCl, 140 mM NaCl, 50 mM HEPES pH 7.2, 5 mM HydroxyEDTA, 0.3% Triton X-100, Ca2+ 10 μM to 5 mM); 4°C overnight; immunoblot. (In western blotting, separated proteins are transferred to a membrane and probed.)

For experiment [2], the target named is Synaptotagmin-7γ expressed in tsA-201 cells (UniProt Q9R0N7). Briefly: co-IP; lysates of transfected tsA-201 cells; Dynabeads Protein G with anti-Cav2.1 or anti-Syt-7 antibody; TBS with Ca2+-buffering system, 0.3% Triton X-100; 4°C overnight; immunoblot.
In experiment [3] the target is Synaptotagmin-7α expressed in tsA-201 cells (UniProt Q9R0N7). The description is as above.
Experiment [4] has as its target Synaptotagmin-7β expressed in tsA-201 cells (UniProt Q9R0N7). Described as above.
Experiment [5] concerns the target GST-Syt-7α fusion protein (full-length Syt-7α) (UniProt Q9R0N7). Description: pull-down; GST-Syt-7α immobilised on glutathione-Sepharose beads, incubated with purified His-synprint proteins 1 h at 4°C; TBS-Ca2+ buffering system with 0.1% Triton X-100, free Ca2+ 10 μM to 1 mM; eluted with 15 mM reduced glutathione; anti-His immunoblot; both purified.
The target in experiment [6] is Cav2.1 channel α1A subunit expressed in tsA-201 cells (UniProt P54282). Description: co-IP; modified experimental protocol (conditions not told); lysates of co-transfected tsA-201 cells; Cav2.1-specific antibodies as precipitating antibodies.
Experiment [7] deals with Cav2.1 channel (α1A subunit), endogenous in mouse brain membranes (mouse (endogenous in brain)) (UniProt P97445). Briefly: co-IP; mouse brain (membrane) lysate; Dynabeads Protein G with anti-Cav2.1 or anti-Syt-7 antibody; TBS with Ca2+-buffering system (50 mM Tris/HCl, 140 mM NaCl, 50 mM HEPES pH 7.2, 5 mM HydroxyEDTA, 0.3% Triton X-100, Ca2+ 10 μM to 5 mM); 4°C overnight; immunoblot.

For experiment [8] the target is unchanged. Briefly: co-IP; modified experimental protocol (conditions not told); mouse brain lysate; three different buffered concentrations of free Ca2+.
Experiment [9] concerns the target Cav2.1 channel α1A subunit expressed in tsA-201 cells (UniProt P54282). Description: co-IP; lysates of transfected tsA-201 cells; Dynabeads Protein G with anti-Cav2.1 or anti-Syt-7 antibody; TBS with Ca2+-buffering system, 0.3% Triton X-100; 4°C overnight; immunoblot.

Regarding “Cav2.1 channel (α1A subunit), endogenous in mouse brain membranes (from UniProt P97445 1-2368)”, in [1], the binding result is on record as “binds”.

For the substance “Cav2.1 channel α1A subunit expressed in tsA-201 cells (from UniProt P54282 1-2212)”, the binding result in experiment [2], in experiment [3] and in experiment [4] was “binds” throughout.

In the case of “His-Cav2.1 synprint (724–981) (from UniProt P54282 724-981) (domain or fragment)”, in experiment [5], the binding entry is “binds”.

In the case of “Synaptotagmin-1 expressed in tsA-201 cells (from UniProt P21707 1-421)”, in [6], the binding entry is reported as “binds”.

As to “Synaptotagmin-7 (Syt-7α), endogenous in mouse brain membranes (from UniProt Q9R0N7-1 1-403)”, the binding entry in [7] and in experiment [8] was “binds” throughout.

With “Synaptotagmin-7α expressed in tsA-201 cells (from UniProt Q9R0N7-1 1-403)”, the binding result in experiment [9] and in experiment [6] was “binds” in each case.

On to “Synaptotagmin-7β expressed in tsA-201 cells (from UniProt Q9R0N7-3 1-447)”, for which, in experiment [9], the binding result is given as “binds”.

For the substance “Synaptotagmin-7γ expressed in tsA-201 cells (from UniProt Q9R0N7-2 1-518)”, the binding result in [9] is listed as “binds”.
